No constants are given. Whether binding was seen depends on the method and setting. In cells and extracts the contact can be indirect. A yes stands for co-enrichment or nearness to the bait. Other partners may have been found.
T1: BRI2 (integral membrane protein 2B) (rat (endogenous in brain)) (UniProt Q5XIE8)
T1 sequence: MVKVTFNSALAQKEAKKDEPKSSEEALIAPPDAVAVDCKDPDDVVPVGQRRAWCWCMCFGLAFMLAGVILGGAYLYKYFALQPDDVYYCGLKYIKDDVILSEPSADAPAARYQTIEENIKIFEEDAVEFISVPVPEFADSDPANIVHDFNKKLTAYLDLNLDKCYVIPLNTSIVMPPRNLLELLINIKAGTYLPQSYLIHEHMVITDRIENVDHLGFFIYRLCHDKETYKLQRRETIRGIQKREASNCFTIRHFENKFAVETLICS


Molecular target: T1, BRI2 (integral membrane protein 2B) (rat (endogenous in brain))
Assay: affinity purification with mass spectrometry; mouse anti-BRI2 antibody (N-terminal region) on Dynabeads Protein G; pre-cleared rat cerebral cortex, hippocampus and cerebellum lysates (50 mM Tris-HCl pH 8.0, 120 mM NaCl, 4% CHAPS), overnight at 4 °C; co-precipitated proteins identified by nano-HPLC-MS/MS; hits absent from the two mock IPs or with a PSM ratio >= 2.0

Binder	binding
Contactin-1 (protein, UniProt Q63198 21-1001) EFTWHRRYGHGVSEEDKGFGPIFEEQPINTIYPEESLEGKVSLNCRARASPFPVYKWRMNNGDVDLTNDRYSMVGGNLVINNPDKQKDAGIYYCLASNNYGMVRSTEATLSFGYLDPFPPEDRPEVKVKEGKGMVLLCDPPYHFPDDLSYRWLLNEFPVFITMDKRRFVSQTNGNLYIANVESSDRGNYSCFVSSPSITKSVFSKFIPLIPIPERTTKPYPADIVVQFKDIYTMMGQNVTLECFALGNPVPDIRWRKVLEPMPTTAEISTSGAVLKIFNIQLEDEGLYECEAENIRGKDKHQARIYVQAFPEWVEHINDTEVDIGSDLYWPCVATGKPIPTIRWLKNGYAYHKGELRLYDVTFENAGMYQCIAENAYGTIYANAELKILALAPTFEMNPMKKKILAAKGGRVIIECKPKAAPKPKFSWSKGTEWLVNSSRILIWEDGSLEINNITRNDGGIYTCFAENNRGKANSTGTLVITNPTRIILAPINADITVGENATMQCAASFDPSLDLTFVWSFNGYVIDFNKEITNIHYQRNFMLDANGELLIRNAQLKHAGRYTCTAQTIVDNSSASADLVVRGPPGPPGGLRIEDIRATSVALTWSRGSDNHSPISKYTIQTKTILSDDWKDAKTDPPIIEGNMESAKAVDLIPWMEYEFRVVATNTLGTGEPSIPSNRIKTDGAAPNVAPSDVGGGGGTNRELTITWAPLSREYHYGNNFGYIVAFKPFDGEEWKKVTVTNPDTGRYVHKDETMTPSTAFQVKVKAFNNKGDGPYSLIAVINSAQDAPSEAPTEVGVKVLSSSEISVHWKHVLEKIVESYQIRYWAGHDKEAAAHRVQVTSQEYSARLENLLPDTQYFIEVGACNSAGCGPSSDVIETFTRKAPPSQPPRIISSVRSGSRYIITWDHVVALSNESTVTGYKILYRPDGQHDGKLFSTHKHSIEVPIPRDGEYVVEVRAHSDGGDGVVSQVKISGVSTLS	binds
Clathrin coat assembly protein AP180 (protein, UniProt Q05140 1-915) MSGQTLTDRIAAAQYSVTGSAVARAVCKATTHEVMGPKKKHLDYLIQATNETNVNIPQMADTLFERATNSSWVVVFKALVTTHHLMVHGNERFIQYLASRNTLFNLSNFLDKSGSHGYDMSTFIRRYSRYLNEKAFSYRQMAFDFARVKKGADGVMRTMVPEKLLKSMPILQGQIDALLEFDVHPNELTNGVINAAFMLLFKDLIKLFACYNDGVINLLEKFFEMKKGQCKDALEIYKRFLTRMTRVSEFLKVADEVGIDKGDIPDLTQAPSSLMETLEQHLNTLEGKKPGNNEGSGAPSPLSKSSPATTVTSPNSTPAKTIDTSPPVDIFATASAAAPVSSAKPSSDLLDLQPDFSGARAGAAAPVPPPTGGATAWGDLLGEDSLAALSSVPSEAPISDPFAPEPSPPTTTTEPASASASATTAVTAATTEVDLFGDAFAASPGEAPAASEGATAPATPAPVAAALDACSGNDPFAPSEGSAEAAPELDLFAMKPPETSAPVVTPTASTAPPVPATAPSPAPTAVAATAATTTAAAAATTTATTSAAAATTAAAPPALDIFGDLFDSAPEVAAASKPDVAPSIDLFGTDAFSSPPRGASPVPESSLTADLLSGSGFHCAEDDRHVPLFFTAVDAFAAPSPASTASPAKAESSGVIDLFGDAFGSSASETQPAPQAVSSSSASADLLAGFGGSFMAPSTTPVTPAQNNLLQPNFEAAFGTTPSTSSSSSFDPSGDLLMPTMAPSGQPAPVSMVPPSPAMSASKGLGSDLDSSLASLVGNLGISGTTSKKGDLQWNAGEKKLTGGANWQPKVTPATWSAGVPPQGTVPPTSSVPPGAGAPSVGQPGAGYGMPPAGTGMTMMPQQPVMFAQPMMRPPFGAAAVPGTQLSPSPTPATQSPKKPPAKDPLADLNIKDFL	binds
Alpha-internexin (protein, UniProt P23565 1-505) MSFGSEHYLCSASSYRKVFGDGSRLSARLSGPGASGSFRSQSLSRSNVASTAACSSASSLGLGLAYRRLPASDGLDLSQAAARTNEYKIIRTNEKEQLQGLNDRFAVFIEKVHQLETQNRALEAELAALRQRHAEPSRVGELFQRELRELRAQLEEASSARAQALLERDGLAEEVQRLRARCEEESRGREGAERALKAQQRDVDGATLARLDLEKKVESLLDELAFVRQVHDEEVAELLATLQASSQAAAEVDVAVAKPDLTSALREIRAQYESLAAKNLQSAEEWYKSKFANLNEQAARSTEAIRASREEIHEYRRQLQARTIEIEGLRGANESLERQILELEERHSAEVAGYQDSIGQLESDLRNTKSEMARHLREYQDLLNVKMALDIEIAAYRKLLEGEETRFSTSGLSISGLNPLPNPSYLLPPRILSSTTSKVSSAGLSLKKEEEEEEEEEEGASKEVTKKTSKVGESFEETLEETVVSTKKTEKSTIEEITTSSSQKM	binds

Other lines, results leading:

binding	Binder
binds	Disks large-associated protein 2 (protein, UniProt P97837 1-1059) MGTAQVLPGILQKHCCILPDRNTESQCTLCGEPEEEEGGDLAQPGLSFPGPAEEDIDQQYSWSPTQHFSEERYSPAPRNMKGLTGSRNQPQLCVGHTCGLSPTDECEHPHDHVRHGPDVRQPYLLSPAESCPMDHHRCSPRSSVHSECMMMPVMLGDHVSSSTFPRMHYSSHYDTRDDCATSHASTKVNRIPANLLDQFEKQLPLHRDGFHTLQYHRASAATEQRNESPGRIRHLVHSVQKLFTKSHSLEGSSKSNINGTKSEGRMDDHHQSHLSKHSKRSKSKERKPESKHKSGMSSWWSSDDNLDSDSTYRTPSVAHRHHMDHIPHCYPEALQSPFGDLSLKTSKSNSDVKCSACEGLALTPDTRYMKRSSWSTLTVSQAKEAYRKSSLNLDKPLVHPEIKPSLQPCHYLQVPQDDWGAYPTGGKEEEIPCRRMRSGSYIKAMGDEESGESDSSPKTSPTVALRPEPLLKSIIQRPLGDHQTQSYLQAATEVPVGHSLDPSVNYNSPKFRSRNQSYMRAVSTLSQASCVSQMSEAEVNGQFESVCESVFSEVESQAMDALDLPGCFRTRSHSYLRAIQAGYSQDDECIPVMTPSNMTSTIRSTAAVSYTNYKKTPPPVPPRTTSKPLISVTAQSSTESTQDAYQDSRAQRMSPWPQDSRGGLYNSMDSLDSNKAMNLALESAAAQRHAADTQSSSTRSIDKAVLVSKAEELLKSRCSSIGVQDSEFPDHQPYPRSDVETATDSDTESRGLREYHSVGVQVEDEKRHGRFKRSNSVTAAVQADLELEGFPGHVSMEDKGLQFGSSFQRHSEPSTPTQYGALRTVRTQGLFSYREDYRTQVDTSTLPPPDPWLEPSLDTVETGRMSPCRRDGSWFLKLLHTETKKMEGWCKEMEREAEENDLSEEILGKIRSAVGSAQLLMSQKFQQFYWLCQQNMDPSAMPRPTSQDLAGYWDMLQLSVEDVSMKFDELHQLKLNDWKIMESPERKEERKIPPPIPKKPPKGKFPITREKSLDLPDRQRQEARRRLMAAKRAASFRQNSATERADSIEIYIPEAQTRL
binds	Contactin-associated protein 1 (protein, UniProt P97846 21-1381) WGYYGCNEELVGPLYARSLGASSYYGLFTTARFARLHGISGWSPRIGDPNPWLQIDLMKKHRIRAVATQGAFNSWDWVTRYMLLYGDRVDSWTPFYQQGHNATFFGNVNDSAVVRHDLHYHFTARYIRIVPLAWNPRGKIGLRLGIYGCPYTSNILYFDGDDAISYRFQRGASQSLWDVFAFSFKTEEKDGLLLHTEGSQGDYVTLELQGAHLLLHMSLGSSPIQPRPGHTTVSAGGVLNDLSWHYVRVDRYGREANLTLDGYVHRFVLNGDFERLNLENEIFIGGLVGAARKNLAYRHNFRGCIENVIYNRINIAEMAVQRHSRITFEGNVAFRCLDPVPHPINFGGPHNFVQVPGFPRRGRLAVSFRFRTWDLTGLLLFSRLGDGLGHVELMLSEGQVNVSIAQTGRKKLQFAAGYRLNDGFWHEVNFVAQENHAVISIDDVEGAEVRVSYPLLIRTGTSYFFGGCPKPASRWGCHSNQTAFHGCMELLKVDGQLVNLTLVEFRKLGYFAEVLFDTCGITDRCSPNMCEHDGRCYQSWDDFICYCELTGYKGVTCHEPLYKESCEAYRLSGKYSGNYTIDPDGSGPLKPFVVYCDIRENRAWTVVRHDRLWTTRVTGSSMDRPFLGAIQYWNASWEEVSALANASQHCEQWIEFSCYNSRLLNTAGGYPYSFWIGRNEEQHFYWGGSQPGIQRCACGLDQSCIDPALHCNCDADQPQWRTDKGLLTFVDHLPVTQVVIGDTNRSSSEAQFFLRPLRCYGDRNSWNTISFRTGAALRFPPIRANHSLDVSFYFRTSAPSGVFLENMGGPFCQWRRPYVRVELNTSRDVVFAFDIGNGDENLTVHSDDFEFNDDEWHLVRAEINVKQARLRVDHRPWVLRPMPLQTYIWLEYDQPLYVGSAELKRRPFVGCLRAMRLNGVTLNLEGRANASEGTFPNCTGHCTHPRFPCFHGGRCVERYSYYTCDCDLTAFDGPYCNHDIGGFFETGTWMRYNLQSALRSAAQEFSHMLSRPVPGYEPGYIPGYDTPGYVPGYHGPGYRLPDYPRPGRPVPGYRGPVYNVTGEEVSFSFSTSSAPAVLLYVSSFVRDYMAVLIKEDGTLQLRYQLGTSPYVYQLTTRPVTDGQPHSVNITRVYRNLFIQVDYFPLTEQKFSLLVDSQLDSPKALYLGRVMETGVIDPEIQRYNTPGFSGCLSGVRFNNVAPLKTHFRTPRPMTAELAEAMRVQGELSESNCGAMPRLVSEVPPELDPWYLPPDFPYYHDDGWIAILLGFLVAFLLLGLVGMLVLFYLQNHRYKGSYHTNEPKATHDSHPGGKAPLPPSGPAQAPAPTPAPTQVPTPAPAPASGPGPRDQNLPQILEESRSE
binds	Copine-9 (protein, UniProt Q5BJS7 1-553) MSLGGASERSVPATKIEITVSCRNLLDLDTFSKSDPMVVLHTQSRASQEWREFGRTEVIDNTLNPDFVRKFVLDYFFEEKQNLRFDVYNVDSKANISKPKDFLGQAFLALGEVIGGQGSRVERPLTGVPGKKCGTILLTAEELSNCRDIATMQLCANKLDKKDFFGKSDPFLVFYRSNEDGTFTICHKTEVVKNTLNPVWQPFSIPVRALCNGDYDRTVKIDVYDWDRDGSHDFIGEFTTSYRELSKAQNQFTVYEVLNPRKKCKKKKYTNSGTVTLLSFSVDSEFTFVDYIKGGTQLNFTVAIDFTASNGNPLQPTSLHYMSPYQLSAYAMALKAVGEIIQDYDSDKLFPAYGFGAKLPPEGRISHQFPLNNNDEDPNCAGIEGVLESYFQSLRTVQLYGPTYFAPVINQVARAAAKISDGSQYYVLLIITDGVISDMTQTKEAIVSASSLPMSIIIVGVGPAMFEAMEELDGDDVRVSSRGRYAERDIVQFVPFRDYVDRSGNQVLSMARLAKDVLAEIPEQLLSYMRTRDIQPRPPPPANPNPTSAPEQP
